Reference: patent publication US7056734B1, “Differentiation of non-insulin producing cells into insulin producing cells by GLP-1 or exendin-4 and uses thereof” (The United States of America as represented by the …, priority 1998, dated 2006)
For at least one compound, name, drawing or mass did not settle the structure.

Tested on: AR42J cells
Test: Immunocytochemistry of insulin- and glucagon-positive AR42J cells
Format: cell-based, rat
Details: presence or absence in culture medium
Experimental: Cell culture. AR42J cells were maintained in Dulbecco's modified Eagle's medium (DMEM) supplemented with 10% fetal calf serum (FBS), 100 IU/ml penicillin, 100 μg/ml streptomycin and 2 mM glutamine. Cells from passage 23–35 were used throughout this study. Cells were routinely plated at a density of about 10^5 cells/ml in 12-well cluster dishes or on coverslips and incubated in a humidified incubator at 37° C. with 95% air and 5% CO2.
Immunocytochemistry analysis. Cells were cultured on glass coverslips, washed with phosphate buffered saline (PBS) to remove serum, and fixed with 0.5% glutaraldehyde in PBS. Cells were permeabilized with 0.2% Triton X-100 for 5 min and the rest of the procedure was carried out at room temperature in a humidified chamber. Suction was used to remove reagents between each step but drying of specimens was avoided. Sufficient reagent was used to cover each specimen (approximately 1 or 2 drops was usually adequate). The coverslips were incubated in 0.3% H2O2 in PBS for 30 min to quench endogenous peroxidase activity and washed in PBS×3 times, followed by incubation with 2% goat serum in PBS for 30 min to block non-specific binding of IgG. Excess serum was removed by blotting. The specific primary polyclonal antisera (anti-insulin 1:300; anti-glucagon 1:300) were used. Antibody was diluted in PBS containing 1% goat serum. […]

For `C[C@@H]1C[C@H]2[C@@H]3CCC4=CC(=O)C=C[C@]4(C)[C@@]3(F)[C@@H](O)C[C@]2(C)[C@@]1(O)C(=O)CO` [dexamethasone, reference compound], the “influence on number of cells converted to endocrine cells in presence of GLP-1” value was “did not in any way influence”.
